In article PMC9279153, “Structure of the Dicer-2–R2D2 heterodimer bound to a small RNA duplex”:
The exact form of at least one protein or probe is not confirmed.

Tests used:
Assay in all cases: photocrosslinking
[1] = test system: Dicer-2 + R2D2 W205A; conditions: p* crosslink to Dicer-2 retained; 5-iodouracil at position 20 of strand 1 (written as U); Crosslinking: 20 nM siRNA, 40 nM Dicer-2-R2D2, 30 min, >300 nm UV 60 s, buffer not given; recombinant protein; protein details: 8xHis (structure prep),3xFlag
[2] = test system: Dicer-2 + R2D2; conditions: p* crosslinks to Dicer-2; 5-iodouracil at position 20 of strand 1 (written as U); Crosslinking: 20 nM siRNA, 40 nM Dicer-2-R2D2, 30 min, >300 nm UV 60 s, buffer not given; recombinant protein; protein details: 8xHis (structure prep),3xFlag
[3] = test system: Dicer-2 + R2D2 K98A; conditions: p* crosslinking not affected by K98A; 5-iodouracil at position 20 of strand 1 (written as U); Crosslinking: 20 nM siRNA, 40 nM Dicer-2-R2D2, 30 min, >300 nm UV 60 s, buffer not given; recombinant protein; protein details: 8xHis (structure prep),3xFlag

Measured: binding result

UGAGGUAGUAGGUUGUAUAUU / AAUACAACCUACUACCUCAUU [p* siRNA (siRNA-1/siRNA-3)]
binds: all assays above
